# Assay results reported in article PMC10044245, “Comparative Evaluation of Existing and Rationally Designed Novel Antimicrobial Peptides for Treatment of Skin and Soft Tissue Infections” (Antibiotics, 2023).
# Experiment: Langmuir-Blodgett compression isotherms
# Details: π–A isotherm, 30 ± 1 °C, peptide mixed with E. coli model membranes
smiles,measurement,value
CC[C@H](C)[C@H](NC(=O)CNC(=O)[C@H](CCCCN)NC(=O)[C@H](Cc1ccc(O)cc1)NC(=O)[C@H](CS)NC(=O)[C@@H](NC(=O)[C@H](CCCCN)NC(=O)[C@H](Cc1ccccc1)NC(=O)[C@H](CS)NC(=O)[C@H](Cc1c[nH]c2ccccc12)NC(=O)[C@@H](N)CCCNC(=N)N)C(C)C)C(=O)N[C@@H](CS)C(=O)N[C@@H](Cc1ccc(O)cc1)C(=O)N[C@@H](CCCCN)C(=O)N[C@@H](CCCCN)C(=O)N[C@@H](CS)C(=O)N[C@@H](CCCCN)C(=O)O [RP556] (H-RWCFKVCYKGICYKKCK-OH; N-terminus and C-terminus assumed),π Collapse,43.6 mN/m

# Where a SMILES comes first, the peptide text is derived from it.
